Results reported in patent US11506670B2, “Method of genome-wide direct identification of electrophile-sensing targets” (Cornell University, priority 2018, dated 2022).
For at least one compound, name, drawing or mass did not settle the structure.

Sequences of proteins named here, by UniProt entry; tags and fusion partners are left off. A change or cut given only in a name is not applied to a line headed by its entry. A line that says so, or that is headed by a name, gives the form on record, which may keep a tag or linker.
UniProt P0A3G2, other isoform, or with tags, fused parts or gaps with the stated changes: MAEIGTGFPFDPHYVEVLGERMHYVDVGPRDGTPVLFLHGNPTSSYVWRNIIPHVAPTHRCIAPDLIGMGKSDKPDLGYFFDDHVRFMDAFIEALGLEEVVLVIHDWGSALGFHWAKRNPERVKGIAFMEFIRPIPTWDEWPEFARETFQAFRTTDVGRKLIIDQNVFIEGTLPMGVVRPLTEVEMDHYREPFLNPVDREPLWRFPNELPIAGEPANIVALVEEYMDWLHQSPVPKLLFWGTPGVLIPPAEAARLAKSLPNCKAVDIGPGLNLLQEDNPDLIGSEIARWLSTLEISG
UniProt Q15819: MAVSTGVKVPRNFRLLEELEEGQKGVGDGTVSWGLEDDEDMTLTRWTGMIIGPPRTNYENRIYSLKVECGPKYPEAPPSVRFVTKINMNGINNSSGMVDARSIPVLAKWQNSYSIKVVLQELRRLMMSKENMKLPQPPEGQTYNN

Columns and labels:
HaloTag = target: T1, HaloTag (Rhodococcus rhodochrous, UniProt P0A3G2, A155T/A167V/A172T/A224E/C128F/C176G/D78G/E160K/E257K/H272N/K175M/K195N/L47V/L88M/N227D/P291S/S2A/S58T/T264A/Y273L/Y87F); conditions: low-energy light 365 nm, 0.3 mW/cm2
T1 construct: expressed in transfected cells; host or cells: HEK293T (pfN21a-Halo plasmid)

Ube2V2 = Ube2V2 (Homo sapiens, UniProt Q15819); experiment: LC-MS/MS identification of the site of modification on Ube2V2 after T-REX delivery; format: cell-based; set-up: the gene of interest (GOI) was PCR-amplified out from the original plasmid; expressed in transfected cells; host or cells: HEK 293T; conditions: T-REX in live cells

## CCCCCC(O)/C=C/C=O (centres unmarked) [HNE, 4-hydroxynonenal]
HaloTag
  t1/2 of HNE(alkyne) release upon light exposure: 1 to 2 min
Ube2V2
  Ube2V2 residue labeled: C69
